The list shows only some results of the screen, not a fair sample: it gathers tests that were run many times, whatever their T/C, doses with no T/C, and many T/C values between a quarter and a half above the control. Other doses and runs of a compound stand elsewhere. T/C: endpoint of the treated group in % of that of the vehicle group. Some doses have a count of surviving animals in place of a T/C: the source files T/C as zero there, which appears to mark a toxic dose or a test without result, not a measured value. Some survivor counts are full or nearly so, which does not show that the dose was tolerated: the source hardly ever lists a survival T/C far under the control, and the zero likely stands for such cases as well. Survivors were counted at the toxicity check, usually on the fifth day, unless a day is given; later deaths do not show. Schedules are NCI's codes, taken here to give the interval after Q, in days (D) or hours (H), and the number of doses after X. Some entries were tested several times; their values stand side by side, smallest first. For survival time, the PubChem record calls one and a half times the control and up active, and a quarter to a half above the control has no call in these data; cut-offs in other NCI protocols can differ. Some T/C values carry the count of animals alive at the toxicity check (mostly the fifth day); where none is given, no animal had died by that day.
System: CD2F1 mice, L1210 leukemia ip, survival T/C
Test: NCI In Vivo Anticancer Drug Screen. Data for tumor model L1210 Leukemia (intraperitoneal) in CD2F1 (CDF1) mice
Details: higher T/C = longer survival
Procedure, shortened: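 Implant tumor; dose compound or vehicle; measure endpoint in both groups; report treated divided by control.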

[1] = T/C endpoint: mean survival time, dose: 400.0 mg/kg/injection, schedule: Q04DX003 (ip), vehicle: saline with Tween-80
[2] = T/C endpoint: mean survival time, dose: 6.25 mg/kg/injection, schedule: Q01DX009 (ip), vehicle: saline with Tween-80

SMILES: CC1(C)c2c3ccccc3cc3cccc(c23)[S+]1c1ccccc1 (stereo unspecified)
- survivor count (T/C endpoint: mean survival time, dose: 100.0 mg/kg/injection, schedule: Q01DX001 (ip), vehicle: saline with Tween-80): 0 of 6
- survivor count (T/C endpoint: mean survival time, dose: 200.0 mg/kg/injection, schedule: Q01DX001 (ip), vehicle: saline with Tween-80): 0 of 6
- survivor count (T/C endpoint: mean survival time, dose: 400.0 mg/kg/injection, schedule: Q01DX001 (ip), vehicle: saline with Tween-80): 0 of 6

SMILES: Clc1nc2ccccc2c2ccccc12
- survivor count [1]: 3 of 6

SMILES: C1N2CN3CN1CN(C2)C3.[Cl][Pt][Cl]
- survivor count (T/C endpoint: mean survival time, dose: 200.0 mg/kg/injection, schedule: Q04DX003 (ip), vehicle: saline with Tween-80): 0 of 6
- survivor count [1]: 0 of 6

SMILES: C=CCOCC(O)C[As](=O)(O)c1ccc(Cl)cc1 (stereo unspecified)
- survivor count (T/C endpoint: mean survival time, dose: 25.0 mg/kg/injection, schedule: Q04DX003 (ip), vehicle: saline with Tween-80): 3 of 6

SMILES: CC(C)=CC[Se]c1ncnc2c1ncn2C1OC(CO)C(O)C1O (stereo unspecified)
- survivor count (T/C endpoint: mean survival time, dose: 100.0 mg/kg/injection, schedule: Q01DX005 (ip), vehicle: saline): 3 of 6
- survivor count (T/C endpoint: mean survival time, dose: 200.0 mg/kg/injection, schedule: Q01DX005 (ip), vehicle: saline): 0 of 6

SMILES: Cc1cc(NCCCCCCCNc2cc(C)nc3cc(N)ccc23)c2ccc(N)cc2n1
- survivor count (T/C endpoint: mean survival time, dose: 0.78 mg/kg/injection, schedule: Q01DX009 (ip), vehicle: saline with Tween-80): 6 of 6
- survivor count (T/C endpoint: mean survival time, dose: 1.56 mg/kg/injection, schedule: Q01DX009 (ip), vehicle: saline with Tween-80): 6 of 6
- survivor count (T/C endpoint: mean survival time, dose: 3.12 mg/kg/injection, schedule: Q01DX009 (ip), vehicle: saline with Tween-80): 6 of 6
- T/C [2]: 126 % of control
- survivor count [2]: 6 of 6
- survivor count (T/C endpoint: mean survival time, dose: 12.5 mg/kg/injection, schedule: Q01DX009 (ip), vehicle: saline with Tween-80): 5 of 6
- survivor count (T/C endpoint: mean survival time, dose: 25.0 mg/kg/injection, schedule: Q01DX009 (ip), vehicle: saline with Tween-80): 5 of 6 and 6 of 6
- T/C (T/C endpoint: median survival time, dose: 1.56 mg/kg/injection, schedule: Q01DX009 (ip), vehicle: water): 134 % of control
- T/C (T/C endpoint: median survival time, dose: 3.12 mg/kg/injection, schedule: Q01DX009 (ip), vehicle: distilled water + Tween-80): 130 % of control
- T/C (T/C endpoint: median survival time, dose: 3.12 mg/kg/injection, schedule: Q01DX009 (ip), vehicle: other): 129 % of control
- T/C (T/C endpoint: median survival time, dose: 3.12 mg/kg/injection, schedule: Q01DX009 (ip), vehicle: water): 139 % of control
- T/C (T/C endpoint: median survival time, dose: 6.25 mg/kg/injection, schedule: Q01DX009 (ip), vehicle: distilled water + Tween-80): 134 % of control
- survivor count (T/C endpoint: median survival time, dose: 25.0 mg/kg/injection, schedule: Q01DX009 (ip), vehicle: distilled water + Tween-80): 5 of 8
- survivor count (T/C endpoint: median survival time, dose: 25.0 mg/kg/injection, schedule: Q01DX009 (ip), vehicle: other): 1 of 8
- survivor count (T/C endpoint: median survival time, dose: 25.0 mg/kg/injection, schedule: Q01DX009 (ip), vehicle: water): 1 of 6

SMILES: Nc1ncnc2c1ncn2C1CC(CO)C(O)OC1O (stereo unspecified)
- T/C (T/C endpoint: mean survival time, dose: 100.0 mg/kg/injection, schedule: Q04DX002 (ip), vehicle: saline with Tween-80): 137 % of control
- T/C (T/C endpoint: mean survival time, dose: 200.0 mg/kg/injection, schedule: Q04DX002 (ip), vehicle: saline with Tween-80): 147 % of control [2 of 3 alive]
- survivor count (T/C endpoint: mean survival time, dose: 400.0 mg/kg/injection, schedule: Q04DX002 (ip), vehicle: saline with Tween-80): 0 of 3

SMILES: OCC1OC(n2ncc3cncnc32)C(O)C1O (stereo unspecified)
- survivor count (T/C endpoint: mean survival time, dose: 400.0 mg/kg/injection, schedule: Q01DX009 (ip), vehicle: other): 3 of 3

SMILES: C/C(=N\NC(=O)c1ccccc1O)c1cccc(/C(C)=N/NC(=O)c2ccccc2O)n1
- survivor count (T/C endpoint: median survival time, dose: 50.0 mg/kg/injection, schedule: Q01DX009 (ip), vehicle: saline): 3 of 6

SMILES: Clc1ccc(-c2nnn3ccccc23)cc1
- survivor count (T/C endpoint: mean survival time, dose: 50.0 mg/kg/injection, schedule: Q01DX001 (ip), vehicle: saline with Tween-80): 3 of 3
- survivor count (T/C endpoint: mean survival time, dose: 400.0 mg/kg/injection, schedule: Q01DX001 (ip), vehicle: saline): 3 of 3
